# Measured values reported in patent US20090203877A1, “X-RAY-DENSE CONJUGATE” (Eberhard-Karls-Universitaet Tuebingen Universitaetsklinkum, priority 2006, published 2009).
# “Also recorded” adds a separate entry of the source. Part of at least one peptide drawing is inferred or uncertain, most often the ends.
# Tested on: LN18 glioma cells
# Experiment: Tumor cell specificity of conjugate 16: cell viability (MTT, propidium iodide)
# Type: cell-based, human
# Conditions: 130 μM, active MMP-2, no inhibitor
smiles,measurement,value
"CC(C)C[C@H](NC(=O)[C@@H]1CCCN1C(=O)[C@H](CCCCNC(=O)c1cc(I)cc(I)c1I)NC(=O)CNC(=O)CNC(=O)[C@H](CCCCNC(=S)Nc1ccc2c(c1)C(=O)OC21c2ccc(O)cc2Oc2cc(O)ccc21)NC(=O)[C@@H](NC(=O)[C@H](CCCCN)NC(=O)[C@H](CCCNC(=N)N)NC(=O)[C@H](CCCCN)NC(=O)[C@H](CCCCN)NC(=O)[C@H](CCCCN)NC(=O)[C@@H]1CCCN1)C(C)C)C(=O)NCC(=O)N[C@H](C(=O)N[C@@H](CCCNC(=N)N)C(=O)N[C@@H](CCCCNC(=O)c1cc(I)cc(I)c1I)C(N)=O)C(C)C [conjugate 16, PKKKRKVK(FITC)GGK(TIBA)PLGVRK(TIBA)]",cell death (uptake of propidium iodide),Only the cleaved conjugate can induce the cell death; also recorded: necrotic
